# Laboratory results: PubChem BioAssay (EPA / NIEHS)
# This list was built around the results that the source calls inconclusive (neither active nor inactive); the mix of calls is not that of the screen. Where the call is inconclusive, the potency comes from a doubtful curve fit. Active and inactive are the calls of the source. The calls were made as follows: active = hit-call score of the fitted dose curve at least 0.9, where 1 is the maximum; inconclusive = response in the unintended direction; inactive = score below 0.9.
# Assay: TAMU_PeakParms_SingleDonor1434_QT: Texas A&M University (TAMU) 1.5-hr Human Induced Pluripotent Stem Cell (iPSC)-derived Cardiomyocytes Calcium (Ca+2) Flux Assay for Cardiotoxicity: QT (decay-rise ratio) (AID 2284235)
# Description: TAMU_PeakParms is a cell-based, multiplexed-readout assay that uses iPSC-derived cardiomyocytes with measurements taken at 1.5 hours after chemical dosing in a microplate: 384-well plate.TAMU_PeakParms_SingleDonor1434_QT is a phenotype derived from the decay.rise.ratio.avg parameter and uses an EC05 as its POD (5% increase in decay/rise ratio, compared to controls). Decay.Rise.Ratio.Average measures as the average ratio between the rise time and the decay time of the calcium flux, using Fluorescence intensity as a functional reporter from Calcium (Ca+2) flux assay technology. Before modeling, data is preprocessed to remove data points where there is a cessation of beating (where peak.freq.avg equals 0) and data points after they develop of a severe notch phenotype in order to avoid capturing non monotonic effects related to an advanced pathology.Data from the assay component TAMU_PeakParms_SingleDonor1434_QT was analyzed into 1 assay endpoints. This assay endpoint, TAMU_PeakParms_SingleDonor1434_QT_Prolongation, was analyzed in the positive analysis fitting direction relative to DMSO as the negative control and baseline of activity. Using a type of functional reporter, gain-of-signal activity can be used to understand changes in the cardiac function. To generalize the intended target to other relatable targets, this assay endpoint is annotated to the cardiomyocyte function intended target family, where the subfamily is QT interval.
# Each test compound from the chemical master plates was transferred into new tissue culture-treated 384-well microplates using acoustic dispensing (Labcyte Echo 550, Beckman Coulter, Indianapolis, IN) in amounts that would result in 5x concentrations (1, 5, 50, 500 uM) in the working plate in a final volume of 50 uL. Chemicals were randomly divided into 16 separate 384-well plates for screening such that the outer-most wells were left empty (308 wells were used on each plate). Fifteen of the plates contained unique test chemicals (n = 65 chemicals, 4 concentrations, one replicate each), positive controls (n = 10 chemicals, one concentration, 3 replicates each), vehicle (0.5% DMSO, n = 12), and media-only (n = 6) wells. Plate 16 contained test chemicals (n = 54 chemicals, 4 concentrations, one replicate each), inter-plate replicates (n = 11 chemicals with replicates, 4 concentrations, one replicate each), and the same design of positive controls and vehicle- and media-only wells as other plates. These plates were stored at -80C until the day of the assay. On assay day, the 5x concentrated chemical working plate was prepared by adding 50 uL cardiomyocyte maintenance medium containing 2.5% v/v DMSO to each well of the microplates. Then, 12.5 uL of 5x concentrated test chemical solution was added to the test plate to yield final concentrations of 0.2, 1, 10, and 100 uM in 0.5% v/v DMSO using the liquid handling robotics of the FLIPR Tetra. FLIPR Tetra settings were optimized to mix and then transfer test chemicals to the microplate at height = 40 uL, speed = 1 uL/sec, and removal speed = 6 mm/sec, resulting in a total volume of 62.5 uL/well with 0.5% v/v DMSO in cardiomyocyte maintenance medium. Immediately after chemical transfer, cells were incubated 37C and 5% CO2 for 90 minutes. Next, the total volume of cell culture medium containing Ca2+ dye (from the Ca2+ flux assay conducted first) was aspirated and replaced with 25 uL/well pre-warmed staining solution with fluorescent probes for nuclei and mitochondria (2.2 ug/mL Hoechst 33342 and 0.2 uM MitoTracker Orange in cardiomyocyte maintenance medium with 1:500 penicillin/streptomycin solution). Microplates were then incubated at standard conditions for 15 minutes, the staining solution was aspirated, and 25 uL/well pre-warmed fresh maintenance medium containing 1:500 penicillin/streptomycin solution was added to each well to wash before proceeding to image acquisition. […]
Compound,outcome,AC50
CCc1nc(N)nc(N)c1-c1ccc(Cl)cc1,inactive,
CN(C)c1ccc(C(=C2C=CC(=[N+](C)C)C=C2)c2ccc(N(C)C)cc2)cc1,,active: 0.352 µM
COCCO,,inconclusive: 50 µM
Nc1nc(=S)c2[nH]cnc2[nH]1,,inconclusive: 4.72 µM
CCCc1cc(=O)[nH]c(=S)[nH]1,,inconclusive: 50 µM
CC(C)NCC(O)COc1ccc(CC(N)=O)cc1 (configuration not stated),inactive,
c1ccc2c(c1)ccc1cc3c(ccc4ccccc43)cc12,,inconclusive: 50 µM
c1ccc2ccccc2c1,inactive,
CC#C[C@]1(O)CC[C@H]2[C@@H]3CCC4=CC(=O)CCC4=C3[C@@H](c3ccc(N(C)C)cc3)C[C@@]21C,,inconclusive: 50 µM
O=c1[nH]cc(F)c(=O)[nH]1,inactive,
CCCOC(=O)c1cc(O)c(O)c(O)c1,,active: 22.1 µM
CC1(C)C(C=C(Cl)Cl)C1C(=O)OCc1cccc(Oc2ccccc2)c1 (configuration not stated),inactive,

# Part of the list above, with bars between the fields:
Compound | outcome | AC50
CCCOC(=O)c1cc(O)c(O)c(O)c1 |  | active: 22.1 µM
CC1(C)C(C=C(Cl)Cl)C1C(=O)OCc1cccc(Oc2ccccc2)c1 (configuration not stated) | inactive | 
